Paper PMC9605963
Like-named read-outs stand apart in the source and are kept apart here. No constants are given. Whether binding was seen depends on the method and setting. In cells and extracts the contact can be indirect. Some results given as binding are weak or reduced against the parent protein; the word gives no strength. Each block holds one molecule with its values, some of them ahead of it.

The chains behind the UniProt entries cited, without tags or fusion partners. Where a name states a change or a piece, a line headed by the entry shows the natural chain unless it says otherwise.
UniProt Q86U44: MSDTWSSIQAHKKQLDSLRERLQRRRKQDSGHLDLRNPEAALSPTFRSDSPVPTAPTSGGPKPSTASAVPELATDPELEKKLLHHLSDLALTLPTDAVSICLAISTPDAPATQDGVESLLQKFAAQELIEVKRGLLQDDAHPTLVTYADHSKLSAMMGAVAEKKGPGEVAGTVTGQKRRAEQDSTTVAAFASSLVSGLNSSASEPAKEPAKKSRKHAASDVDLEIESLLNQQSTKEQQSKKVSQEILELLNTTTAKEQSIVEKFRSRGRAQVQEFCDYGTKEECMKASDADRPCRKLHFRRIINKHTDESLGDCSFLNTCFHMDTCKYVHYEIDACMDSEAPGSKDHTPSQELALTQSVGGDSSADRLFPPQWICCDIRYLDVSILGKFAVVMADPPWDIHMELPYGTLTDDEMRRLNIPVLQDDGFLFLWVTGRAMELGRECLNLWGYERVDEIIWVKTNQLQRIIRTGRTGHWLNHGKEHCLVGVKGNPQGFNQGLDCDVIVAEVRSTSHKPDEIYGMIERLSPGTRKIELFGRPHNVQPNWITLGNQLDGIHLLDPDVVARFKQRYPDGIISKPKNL
UniProt P55884: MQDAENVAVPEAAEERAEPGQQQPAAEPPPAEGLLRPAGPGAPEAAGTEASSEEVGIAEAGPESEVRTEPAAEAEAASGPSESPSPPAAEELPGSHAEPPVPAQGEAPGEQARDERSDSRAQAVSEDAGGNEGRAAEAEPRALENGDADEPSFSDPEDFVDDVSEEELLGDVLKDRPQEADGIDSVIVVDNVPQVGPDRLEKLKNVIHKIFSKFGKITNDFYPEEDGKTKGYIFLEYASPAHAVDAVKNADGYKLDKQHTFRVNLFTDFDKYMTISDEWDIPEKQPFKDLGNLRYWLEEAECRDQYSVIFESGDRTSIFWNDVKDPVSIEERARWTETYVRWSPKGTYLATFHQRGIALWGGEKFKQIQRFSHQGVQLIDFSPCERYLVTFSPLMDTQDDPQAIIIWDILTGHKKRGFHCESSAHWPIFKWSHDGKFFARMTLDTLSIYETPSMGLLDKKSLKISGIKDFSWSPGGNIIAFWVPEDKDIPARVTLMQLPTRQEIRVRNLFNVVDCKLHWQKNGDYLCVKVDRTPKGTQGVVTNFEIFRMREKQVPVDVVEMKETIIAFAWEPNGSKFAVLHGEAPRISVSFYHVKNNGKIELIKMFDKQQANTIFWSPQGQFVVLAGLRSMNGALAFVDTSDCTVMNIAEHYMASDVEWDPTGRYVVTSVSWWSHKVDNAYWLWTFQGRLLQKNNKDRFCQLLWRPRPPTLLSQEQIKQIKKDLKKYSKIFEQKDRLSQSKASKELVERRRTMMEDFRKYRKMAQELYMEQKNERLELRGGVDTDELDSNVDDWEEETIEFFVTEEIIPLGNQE
UniProt P52294: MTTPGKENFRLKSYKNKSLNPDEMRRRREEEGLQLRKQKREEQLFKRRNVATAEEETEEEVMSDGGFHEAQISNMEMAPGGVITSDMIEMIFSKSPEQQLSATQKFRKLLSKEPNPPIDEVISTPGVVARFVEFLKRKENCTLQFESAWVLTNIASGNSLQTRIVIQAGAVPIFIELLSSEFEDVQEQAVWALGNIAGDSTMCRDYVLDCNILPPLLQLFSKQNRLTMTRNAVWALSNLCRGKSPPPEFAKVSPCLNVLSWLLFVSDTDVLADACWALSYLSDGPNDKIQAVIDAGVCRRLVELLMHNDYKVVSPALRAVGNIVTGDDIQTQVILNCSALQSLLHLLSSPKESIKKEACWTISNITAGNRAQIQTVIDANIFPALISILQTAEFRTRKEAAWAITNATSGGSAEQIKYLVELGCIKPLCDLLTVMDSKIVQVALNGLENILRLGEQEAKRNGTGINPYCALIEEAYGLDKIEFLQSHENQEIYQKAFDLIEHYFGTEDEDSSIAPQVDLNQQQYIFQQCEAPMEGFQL
UniProt O15372: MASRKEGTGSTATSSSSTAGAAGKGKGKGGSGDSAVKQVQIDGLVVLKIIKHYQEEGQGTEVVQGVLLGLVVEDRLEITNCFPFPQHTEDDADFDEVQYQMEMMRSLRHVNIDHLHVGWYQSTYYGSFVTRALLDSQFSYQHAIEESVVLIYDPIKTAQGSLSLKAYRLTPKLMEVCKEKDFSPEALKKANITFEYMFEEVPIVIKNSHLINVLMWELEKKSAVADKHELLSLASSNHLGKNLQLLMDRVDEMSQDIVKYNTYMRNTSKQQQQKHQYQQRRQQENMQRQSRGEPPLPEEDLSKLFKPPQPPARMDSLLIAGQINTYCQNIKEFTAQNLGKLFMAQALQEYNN

How the values were obtained:
[1] = biological target: recombinant GST-METTL3 K177Q (UniProt Q86U44); assay: pull-down; around 10 μg recombinant GST-METTL3 mixed with lysates of HEK293T cells transfected with HA-importin α5, 4 °C for 2 h; washed 5 times with NETN buffer; proteins retained on sepharose blotted; only the target purified
[2] = biological target: recombinant GST-METTL3 (wild type) (UniProt Q86U44); assay: as above
[3] = biological target: recombinant GST-METTL3 K177R (UniProt Q86U44); assay: as above
[4] = biological target: Myc-METTL3 K177Q (acetylation-mimetic), ectopic in HEK293T cells (UniProt Q86U44); assay: co-IP; lysates of HEK293T cells transfected with the indicated constructs; lysis buffer 50 mM Tris pH 7.4, 150 mM NaCl, 1% Triton with 5 mM NAM; washed five times with NETN buffer; immunoblot
[5] = biological target: Myc-METTL3 K177R (acetylation-deficient), ectopic in HEK293T cells (UniProt Q86U44); assay: as above
[6] = biological target: Myc-METTL3 (wild type), ectopic in HEK293T cells (UniProt Q86U44); assay: as above
[7] = biological target: Myc-METTL3^K177Q in METTL3 reconstituting MDA-MB-231 cells (UniProt Q86U44); assay: co-IP; lysates of METTL3 reconstituting MDA-MB-231 cells treated with RNase A; immunoprecipitation of Myc-METTL3; immunoblot of endogenous partners
[8] = biological target: endogenous METTL3 (human (endogenous in MDA-MB-231)) (UniProt Q86U44); assay: co-IP; endogenous proteins, lysates of MDA-MB-231 cells without ASP/NAM; IP and IB
[9] = biological target: endogenous METTL3 (human (endogenous in MDA-MB-231)) (UniProt Q86U44); assay: condition: only cells treated with 5 mM ASP and 3 mM NAM for 24 h; co-IP; endogenous proteins, lysates of MDA-MB-231 cells treated with 5 mM ASP and 3 mM NAM for 24 h; IP and IB
[10] = biological target: Myc-METTL3 (wild type), ectopic in HEK293T cells (UniProt Q86U44); assay: co-IP; lysates of HEK293T cells transfected with the indicated constructs; lysis buffer 50 mM Tris pH 7.4, 150 mM NaCl, 1% Triton with 5 mM NAM; washed five times with NETN buffer; immunoblot; remark: listed apart in the source

Molecule: endogenous eIF3b (from UniProt P55884 1-814)
binding [7]: binds

Molecule: endogenous importin α5 (from UniProt P52294 1-538)
binding [8]: binds | binding [9]: no binding

B1: endogenous SIRT2 (enzyme, UniProt Q8IXJ6 1-389)
chain: MAEPDPSHPLETQAGKVQEAQDSDSDSEGGAAGGEADMDFLRNLFSQTLSLGSQKERLLDELTLEGVARYMQSERCRRVICLVGAGISTSAGIPDFRSPSTGLYDNLEKYHLPYPEAIFEISYFKKHPEPFFALAKELYPGQFKPTICHYFMRLLKDKGLLLRCYTQNIDTLERIAGLEQEDLVEAHGTFYTSHCVSASCRHEYPLSWMKEKIFSEVTPKCEDCQSLVKPDIVFFGESLPARFFSCMQSDFLKVDLLLVMGTSLQVQPFASLISKAPLSTPRLLINKEKAGQSDPFLGMIMGLGGGMDFDSKKAYRDVAWLGECDQGCLALAELLGWKKELEDLVRREHASIDAQSGAGVPNPSTSASPKKSPPPAKDEARTTEREKPQ
binding [10]: no binding

The remaining lines, values ahead:

binding [1]: binds weakly | binding [2]: binds | binding [3]: binds | binding [4]: binds weakly | binding [5]: binds | binding [6]: binds
Molecule: HA-importin α5 (from UniProt P52294 1-538)

binding [7]: binds
Molecule: endogenous eIF3h (from UniProt O15372 1-352)
